± gives the standard deviation of the averaged measurements. The list shows a part of the results, in another mix than the full data. Most entries show no effect beyond the scatter of the controls.
Compound: Nc1ncnc2c1ncn2[C@@H]1O[C@H](COP(=O)(O)OP(=O)(O)NP(=O)(O)O)[C@@H](O)[C@H]1O [adenylyl imidodiphosphate]
Test: NP40-soluble protein abundance relative to vehicle (solubility fold change) (ratio); higher = more soluble protein in presence of AMP-PNP
Procedure, shortened: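 Jurkat crude lysate (Dounce-homogenised) was treated with eight concentrations from 0.1 to 10 mM for 10 min at room temperature, then 3 min at 37 °C. It was solubilised with 0.8% NP40 and benzonase (60 min, 4 °C) and ultracentrifuged, and the supernatant was TMT-labelled for LC-MS/MS. Intensities were vsn-normalised, and the value is the fold change against the NP40-processed vehicle per replicate, from three independent experiments.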

The chains behind the UniProt entries cited, without tags or fusion partners. Where a name states a change or a piece, a line headed by the entry shows the natural chain unless it says otherwise.
UniProt Q9HCE1: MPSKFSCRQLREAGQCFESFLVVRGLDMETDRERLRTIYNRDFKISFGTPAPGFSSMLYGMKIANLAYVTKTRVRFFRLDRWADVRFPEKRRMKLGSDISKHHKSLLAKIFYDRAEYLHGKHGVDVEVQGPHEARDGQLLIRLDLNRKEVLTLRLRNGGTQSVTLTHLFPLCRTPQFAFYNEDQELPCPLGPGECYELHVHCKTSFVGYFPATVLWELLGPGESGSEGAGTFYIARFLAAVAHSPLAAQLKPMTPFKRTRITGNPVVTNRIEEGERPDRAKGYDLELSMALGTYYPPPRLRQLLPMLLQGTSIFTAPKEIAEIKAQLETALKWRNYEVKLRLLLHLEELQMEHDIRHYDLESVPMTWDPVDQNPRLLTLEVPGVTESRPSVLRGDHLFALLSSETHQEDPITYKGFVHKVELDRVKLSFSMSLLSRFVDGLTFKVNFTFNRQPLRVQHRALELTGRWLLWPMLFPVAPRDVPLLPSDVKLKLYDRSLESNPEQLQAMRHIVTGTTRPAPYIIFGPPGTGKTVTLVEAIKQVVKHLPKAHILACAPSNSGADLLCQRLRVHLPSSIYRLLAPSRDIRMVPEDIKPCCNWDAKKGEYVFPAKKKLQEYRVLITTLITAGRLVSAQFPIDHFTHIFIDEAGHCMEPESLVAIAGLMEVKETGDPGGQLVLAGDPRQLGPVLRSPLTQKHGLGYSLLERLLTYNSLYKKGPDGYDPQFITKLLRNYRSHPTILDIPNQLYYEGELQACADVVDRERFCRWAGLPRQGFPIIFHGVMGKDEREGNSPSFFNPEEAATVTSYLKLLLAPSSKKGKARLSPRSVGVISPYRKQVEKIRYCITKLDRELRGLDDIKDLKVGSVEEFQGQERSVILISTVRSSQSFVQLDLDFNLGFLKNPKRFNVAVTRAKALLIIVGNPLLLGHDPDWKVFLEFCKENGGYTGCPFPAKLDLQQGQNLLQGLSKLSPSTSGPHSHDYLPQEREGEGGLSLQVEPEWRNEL
UniProt Q9H0A0: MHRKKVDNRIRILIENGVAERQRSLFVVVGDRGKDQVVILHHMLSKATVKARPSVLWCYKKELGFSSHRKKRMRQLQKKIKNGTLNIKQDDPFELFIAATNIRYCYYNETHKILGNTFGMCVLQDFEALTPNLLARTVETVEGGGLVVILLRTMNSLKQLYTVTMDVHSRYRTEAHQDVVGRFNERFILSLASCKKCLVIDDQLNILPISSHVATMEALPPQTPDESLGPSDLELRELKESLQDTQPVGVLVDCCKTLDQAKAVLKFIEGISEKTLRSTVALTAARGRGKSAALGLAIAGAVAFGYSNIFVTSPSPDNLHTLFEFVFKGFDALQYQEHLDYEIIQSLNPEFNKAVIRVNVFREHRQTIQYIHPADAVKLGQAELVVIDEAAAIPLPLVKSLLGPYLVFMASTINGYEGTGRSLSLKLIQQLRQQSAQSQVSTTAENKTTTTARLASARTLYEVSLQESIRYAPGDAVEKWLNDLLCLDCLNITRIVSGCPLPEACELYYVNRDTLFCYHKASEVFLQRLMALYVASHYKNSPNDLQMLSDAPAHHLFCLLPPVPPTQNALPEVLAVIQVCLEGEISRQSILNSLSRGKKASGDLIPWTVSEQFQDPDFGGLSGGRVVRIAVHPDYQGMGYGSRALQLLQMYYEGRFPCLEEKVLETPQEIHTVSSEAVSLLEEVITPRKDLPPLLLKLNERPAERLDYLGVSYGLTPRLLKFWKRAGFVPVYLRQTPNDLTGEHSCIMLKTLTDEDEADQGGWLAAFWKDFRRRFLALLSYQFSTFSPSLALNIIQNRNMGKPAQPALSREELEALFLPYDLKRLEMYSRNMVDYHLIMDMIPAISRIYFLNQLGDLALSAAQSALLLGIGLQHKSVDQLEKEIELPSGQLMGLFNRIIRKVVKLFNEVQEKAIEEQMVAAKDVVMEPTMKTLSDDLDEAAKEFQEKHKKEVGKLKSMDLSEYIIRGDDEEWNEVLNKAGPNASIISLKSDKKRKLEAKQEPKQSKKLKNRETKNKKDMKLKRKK
UniProt Q9H446: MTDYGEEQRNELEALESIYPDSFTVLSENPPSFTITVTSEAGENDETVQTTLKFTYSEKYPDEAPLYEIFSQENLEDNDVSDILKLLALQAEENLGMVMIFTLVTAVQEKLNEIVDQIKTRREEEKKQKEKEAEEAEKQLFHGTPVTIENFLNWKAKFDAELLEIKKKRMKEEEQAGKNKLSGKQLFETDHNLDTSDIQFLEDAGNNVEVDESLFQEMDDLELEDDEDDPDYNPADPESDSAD
UniProt Q9NPA8: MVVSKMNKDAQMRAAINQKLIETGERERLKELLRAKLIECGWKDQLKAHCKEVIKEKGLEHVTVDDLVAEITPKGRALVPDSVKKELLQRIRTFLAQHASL
UniProt Q9GZQ3, whole entry: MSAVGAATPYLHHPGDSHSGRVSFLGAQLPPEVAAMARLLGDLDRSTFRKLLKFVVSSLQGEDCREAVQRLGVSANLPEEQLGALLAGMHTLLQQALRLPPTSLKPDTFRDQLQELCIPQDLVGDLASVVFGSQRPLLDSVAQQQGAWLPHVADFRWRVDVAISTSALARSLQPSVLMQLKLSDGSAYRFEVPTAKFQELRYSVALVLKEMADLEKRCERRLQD
UniProt Q9C037: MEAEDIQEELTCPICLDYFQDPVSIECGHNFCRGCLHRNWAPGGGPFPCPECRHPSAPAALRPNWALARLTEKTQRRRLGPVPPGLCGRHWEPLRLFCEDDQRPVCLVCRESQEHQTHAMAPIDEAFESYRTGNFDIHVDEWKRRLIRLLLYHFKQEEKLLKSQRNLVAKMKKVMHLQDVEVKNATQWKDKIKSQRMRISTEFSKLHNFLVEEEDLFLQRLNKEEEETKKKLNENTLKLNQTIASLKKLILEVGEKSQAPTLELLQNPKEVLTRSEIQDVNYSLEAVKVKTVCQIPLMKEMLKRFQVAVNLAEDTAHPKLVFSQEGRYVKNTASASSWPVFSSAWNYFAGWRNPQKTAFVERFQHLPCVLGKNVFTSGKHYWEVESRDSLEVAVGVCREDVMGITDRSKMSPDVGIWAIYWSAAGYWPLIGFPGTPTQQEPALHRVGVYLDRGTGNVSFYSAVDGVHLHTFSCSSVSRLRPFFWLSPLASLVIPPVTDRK
UniProt Q9H008: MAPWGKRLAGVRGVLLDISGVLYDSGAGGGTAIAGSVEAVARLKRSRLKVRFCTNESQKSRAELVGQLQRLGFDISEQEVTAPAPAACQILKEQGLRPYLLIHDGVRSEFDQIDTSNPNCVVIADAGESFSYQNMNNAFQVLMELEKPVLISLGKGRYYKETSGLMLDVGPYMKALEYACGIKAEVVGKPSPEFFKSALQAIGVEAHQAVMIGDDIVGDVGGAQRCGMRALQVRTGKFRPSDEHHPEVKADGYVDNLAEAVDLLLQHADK
UniProt Q9H981, whole entry: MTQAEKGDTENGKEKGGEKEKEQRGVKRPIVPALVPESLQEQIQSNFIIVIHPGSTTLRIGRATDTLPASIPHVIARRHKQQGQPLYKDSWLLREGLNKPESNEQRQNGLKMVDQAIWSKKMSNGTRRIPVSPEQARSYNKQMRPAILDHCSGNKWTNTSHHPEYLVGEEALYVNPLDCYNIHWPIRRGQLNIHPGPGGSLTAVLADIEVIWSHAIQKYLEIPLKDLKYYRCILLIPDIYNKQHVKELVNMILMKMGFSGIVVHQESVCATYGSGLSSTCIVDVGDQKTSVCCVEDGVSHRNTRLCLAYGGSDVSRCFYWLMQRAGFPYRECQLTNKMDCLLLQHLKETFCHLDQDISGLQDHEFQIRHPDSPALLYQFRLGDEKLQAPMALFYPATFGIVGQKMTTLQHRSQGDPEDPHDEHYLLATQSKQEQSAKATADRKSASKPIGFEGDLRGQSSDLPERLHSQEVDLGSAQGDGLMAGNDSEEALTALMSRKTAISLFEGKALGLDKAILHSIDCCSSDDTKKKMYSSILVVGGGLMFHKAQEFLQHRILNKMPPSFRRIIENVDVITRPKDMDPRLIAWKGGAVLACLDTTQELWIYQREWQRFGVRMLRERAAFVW
UniProt Q9H3N1: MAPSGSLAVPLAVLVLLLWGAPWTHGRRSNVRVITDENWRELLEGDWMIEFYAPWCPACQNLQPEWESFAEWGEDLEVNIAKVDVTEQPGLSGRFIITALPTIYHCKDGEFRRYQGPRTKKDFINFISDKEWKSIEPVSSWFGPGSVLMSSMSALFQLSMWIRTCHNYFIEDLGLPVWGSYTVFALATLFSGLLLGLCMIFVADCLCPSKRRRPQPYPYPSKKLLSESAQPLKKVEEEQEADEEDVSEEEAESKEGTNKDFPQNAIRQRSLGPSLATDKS
UniProt Q9H8P0: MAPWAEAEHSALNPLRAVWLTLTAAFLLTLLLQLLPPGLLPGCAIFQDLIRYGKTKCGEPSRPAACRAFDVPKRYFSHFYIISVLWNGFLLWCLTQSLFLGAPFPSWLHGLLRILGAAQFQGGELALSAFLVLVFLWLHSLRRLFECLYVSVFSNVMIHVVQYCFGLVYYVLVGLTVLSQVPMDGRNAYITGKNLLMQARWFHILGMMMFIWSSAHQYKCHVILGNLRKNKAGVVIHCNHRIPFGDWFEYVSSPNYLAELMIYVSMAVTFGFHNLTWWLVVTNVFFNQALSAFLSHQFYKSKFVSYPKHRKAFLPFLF
UniProt Q9H1U4: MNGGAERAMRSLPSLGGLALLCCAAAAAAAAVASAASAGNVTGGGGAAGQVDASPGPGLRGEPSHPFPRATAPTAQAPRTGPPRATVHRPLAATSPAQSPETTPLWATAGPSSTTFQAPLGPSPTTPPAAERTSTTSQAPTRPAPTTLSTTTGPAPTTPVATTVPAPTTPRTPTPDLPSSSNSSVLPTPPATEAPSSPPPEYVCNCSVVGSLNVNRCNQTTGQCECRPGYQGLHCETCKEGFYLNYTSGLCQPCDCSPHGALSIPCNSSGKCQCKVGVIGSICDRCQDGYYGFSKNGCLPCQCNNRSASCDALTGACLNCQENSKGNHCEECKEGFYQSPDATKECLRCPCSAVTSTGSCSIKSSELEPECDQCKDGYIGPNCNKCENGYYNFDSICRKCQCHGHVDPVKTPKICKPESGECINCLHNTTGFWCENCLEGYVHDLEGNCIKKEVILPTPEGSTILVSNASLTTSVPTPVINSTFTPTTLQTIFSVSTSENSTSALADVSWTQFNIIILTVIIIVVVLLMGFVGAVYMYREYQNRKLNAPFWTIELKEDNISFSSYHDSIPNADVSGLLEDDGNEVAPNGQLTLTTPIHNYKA
UniProt Q9H165: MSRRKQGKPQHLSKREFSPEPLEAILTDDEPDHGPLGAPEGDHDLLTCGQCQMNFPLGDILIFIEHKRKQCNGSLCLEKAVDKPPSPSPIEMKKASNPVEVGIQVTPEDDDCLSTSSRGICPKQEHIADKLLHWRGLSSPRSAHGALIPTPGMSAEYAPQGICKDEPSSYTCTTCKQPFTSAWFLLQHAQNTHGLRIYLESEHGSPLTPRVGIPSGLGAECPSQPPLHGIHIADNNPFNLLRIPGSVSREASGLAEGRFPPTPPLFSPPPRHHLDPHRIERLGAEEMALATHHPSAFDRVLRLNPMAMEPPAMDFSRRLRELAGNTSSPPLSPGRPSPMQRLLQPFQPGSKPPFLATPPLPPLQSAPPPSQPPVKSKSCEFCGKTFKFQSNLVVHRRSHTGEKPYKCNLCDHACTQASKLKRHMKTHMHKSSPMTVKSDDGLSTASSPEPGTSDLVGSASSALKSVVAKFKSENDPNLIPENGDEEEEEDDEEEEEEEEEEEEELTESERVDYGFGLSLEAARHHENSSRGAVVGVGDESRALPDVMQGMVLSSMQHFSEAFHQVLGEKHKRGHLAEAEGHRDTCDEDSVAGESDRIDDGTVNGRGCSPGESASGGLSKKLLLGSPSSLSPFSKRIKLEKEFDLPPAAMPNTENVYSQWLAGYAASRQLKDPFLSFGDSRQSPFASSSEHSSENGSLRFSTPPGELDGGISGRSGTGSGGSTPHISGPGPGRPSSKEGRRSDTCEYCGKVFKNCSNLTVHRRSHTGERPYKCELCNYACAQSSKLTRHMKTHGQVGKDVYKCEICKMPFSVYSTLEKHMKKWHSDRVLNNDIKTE
UniProt Q9H074: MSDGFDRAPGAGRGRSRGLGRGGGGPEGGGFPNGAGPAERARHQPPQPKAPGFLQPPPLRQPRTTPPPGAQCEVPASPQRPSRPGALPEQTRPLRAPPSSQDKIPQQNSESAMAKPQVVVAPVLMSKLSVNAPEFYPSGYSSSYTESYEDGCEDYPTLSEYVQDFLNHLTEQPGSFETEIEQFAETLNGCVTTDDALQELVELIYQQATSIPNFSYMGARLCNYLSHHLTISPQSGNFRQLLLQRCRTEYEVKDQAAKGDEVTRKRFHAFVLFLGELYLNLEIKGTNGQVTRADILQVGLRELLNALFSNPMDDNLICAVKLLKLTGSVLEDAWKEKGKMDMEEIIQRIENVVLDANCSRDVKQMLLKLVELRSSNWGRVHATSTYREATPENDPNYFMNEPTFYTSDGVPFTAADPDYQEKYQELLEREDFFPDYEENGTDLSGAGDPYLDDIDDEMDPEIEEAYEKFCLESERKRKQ
UniProt Q9HD34: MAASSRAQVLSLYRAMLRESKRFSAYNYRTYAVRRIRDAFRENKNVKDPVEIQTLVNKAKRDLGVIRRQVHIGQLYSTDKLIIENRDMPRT

Target: ISCU (UniProt Q9H1K1)
- NP40-soluble protein abundance (concentration: 0.1mM): 0.981 ± 0.041
- NP40-soluble protein abundance (concentration: 0.5mM): 0.997 ± 0.056

Target: PREB (UniProt Q9HCU5)
- NP40-soluble protein abundance (concentration: 0.1mM): 1.01 ± 0.015
- NP40-soluble protein abundance (concentration: 0.5mM): 1 ± 0.018

Target: MOV10 (UniProt Q9HCE1)
- NP40-soluble protein abundance (concentration: 0.1mM): 1.05 ± 0.025
- NP40-soluble protein abundance (concentration: 0.5mM): 1.02 ± 0.091

Target: UniProt Q9H0A0 and related entries
- NP40-soluble protein abundance (concentration: 0.1mM): 1.35 ± 0.23
- NP40-soluble protein abundance (concentration: 0.5mM): 1.43 ± 0.097

Target: NCOA5 (UniProt Q9HCD5)
- NP40-soluble protein abundance (concentration: 0.1mM): 0.992 ± 0.053
- NP40-soluble protein abundance (concentration: 0.5mM): 1.06 ± 0.055

Target: UniProt Q9H2F5-2|Q9H2F5 and related entries
- NP40-soluble protein abundance (concentration: 0.1mM): 0.999 ± 0.013
- NP40-soluble protein abundance (concentration: 0.5mM): 0.9449 ± 0.0068

Target: UniProt Q9H9T3-2
- NP40-soluble protein abundance (concentration: 0.1mM): 1.04 ± 0.024
- NP40-soluble protein abundance (concentration: 0.5mM): 1.01 ± 0.051

Target: UniProt Q9H974 and related entries
- NP40-soluble protein abundance (concentration: 0.1mM): 1.02 ± 0.032
- NP40-soluble protein abundance (concentration: 0.5mM): 0.997 ± 0.018

Target: UniProt Q9H3U1 and related entries
- NP40-soluble protein abundance (concentration: 0.1mM): 0.996 ± 0.015
- NP40-soluble protein abundance (concentration: 0.5mM): 0.9642 ± 0.0067

Target: PUS3 (UniProt Q9BZE2)
- NP40-soluble protein abundance (concentration: 0.1mM): 1 ± 0.034
- NP40-soluble protein abundance (concentration: 0.5mM): 0.99 ± 0.018

Target: ILKAP (UniProt Q9H0C8)
- NP40-soluble protein abundance (concentration: 0.1mM): 0.983 ± 0.017
- NP40-soluble protein abundance (concentration: 0.5mM): 0.9723 ± 0.0095

Target: UniProt Q9H7E2-3
- NP40-soluble protein abundance (concentration: 0.1mM): 1.03 ± 0.042
- NP40-soluble protein abundance (concentration: 0.5mM): 1.03 ± 0.041

Target: GTPBP4 (UniProt Q9BZE4)
- NP40-soluble protein abundance (concentration: 0.1mM): 1.03 ± 0.018
- NP40-soluble protein abundance (concentration: 0.5mM): 1.02 ± 0.048

Target: UniProt Q9H5V9 and related entries
- NP40-soluble protein abundance (concentration: 0.1mM): 0.98 ± 0.013
- NP40-soluble protein abundance (concentration: 0.5mM): 1 ± 0.022

Target: UniProt Q9NNW7 and related entries
- NP40-soluble protein abundance (concentration: 0.1mM): 1.01 ± 0.021
- NP40-soluble protein abundance (concentration: 0.5mM): 0.996 ± 0.013

Target: UniProt Q9GZS1-2
- NP40-soluble protein abundance (concentration: 0.1mM): 0.997 ± 0.024
- NP40-soluble protein abundance (concentration: 0.5mM): 0.971 ± 0.033

Target: UniProt Q9H446 and related entries
- NP40-soluble protein abundance (concentration: 0.1mM): 0.957 ± 0.017
- NP40-soluble protein abundance (concentration: 0.5mM): 1 ± 0.042

Target: UniProt Q9H0F7 and related entries
- NP40-soluble protein abundance (concentration: 0.1mM): 1.06 ± 0.056
- NP40-soluble protein abundance (concentration: 0.5mM): 1.05 ± 0.083

Target: DHX33 (UniProt Q9H6R0)
- NP40-soluble protein abundance (concentration: 0.1mM): 1.02 ± 0.078
- NP40-soluble protein abundance (concentration: 0.5mM): 0.995 ± 0.025

Target: UniProt Q9BZQ6-2
- NP40-soluble protein abundance (concentration: 0.1mM): 1 ± 0.021
- NP40-soluble protein abundance (concentration: 0.5mM): 0.988 ± 0.025

Target: WDR11 (UniProt Q9BZH6)
- NP40-soluble protein abundance (concentration: 0.1mM): 1.02 ± 0.027
- NP40-soluble protein abundance (concentration: 0.5mM): 0.995 ± 0.05

Target: TNKS1BP1 (UniProt Q9C0C2)
- NP40-soluble protein abundance (concentration: 0.1mM): 0.9947 ± 0.0071
- NP40-soluble protein abundance (concentration: 0.5mM): 0.9568 ± 0.0095

Target: UniProt Q9NPA8 and related entries
- NP40-soluble protein abundance (concentration: 0.1mM): 1.03 ± 0.087
- NP40-soluble protein abundance (concentration: 0.5mM): 1.1 ± 0.16

Target: SCPEP1 (UniProt Q9HB40)
- NP40-soluble protein abundance (concentration: 0.1mM): 0.987 ± 0.045
- NP40-soluble protein abundance (concentration: 0.5mM): 0.95 ± 0.059

Target: UniProt Q9GZQ3 and related entries
- NP40-soluble protein abundance (concentration: 0.1mM): 1.01 ± 0.05
- NP40-soluble protein abundance (concentration: 0.5mM): 1.03 ± 0.093

Target: UniProt Q9C037 and related entries
- NP40-soluble protein abundance (concentration: 0.1mM): 0.995 ± 0.013
- NP40-soluble protein abundance (concentration: 0.5mM): 0.967 ± 0.035

Target: GAN (UniProt Q9H2C0)
- NP40-soluble protein abundance (concentration: 0.1mM): 1.01 ± 0.047
- NP40-soluble protein abundance (concentration: 0.5mM): 1 ± 0.037

Target: SEMA4C (UniProt Q9C0C4)
- NP40-soluble protein abundance (concentration: 0.1mM): 0.995 ± 0.043
- NP40-soluble protein abundance (concentration: 0.5mM): 1.01 ± 0.013

Target: UniProt Q9H173 and related entries
- NP40-soluble protein abundance (concentration: 0.1mM): 0.972 ± 0.034
- NP40-soluble protein abundance (concentration: 0.5mM): 1.016 ± 0.0031

Target: LHPP (UniProt Q9H008)
- NP40-soluble protein abundance (concentration: 0.1mM): 1.05 ± 0.02
- NP40-soluble protein abundance (concentration: 0.5mM): 1.03 ± 0.03

Target: KLC2 (UniProt Q9H0B6)
- NP40-soluble protein abundance (concentration: 0.1mM): 1.02 ± 0.036
- NP40-soluble protein abundance (concentration: 0.5mM): 1.01 ± 0.034

Target: UniProt Q9H0A8 and related entries
- NP40-soluble protein abundance (concentration: 0.1mM): 1.01 ± 0.024
- NP40-soluble protein abundance (concentration: 0.5mM): 1.01 ± 0.031

Target: ACTR8 (UniProt Q9H981)
- NP40-soluble protein abundance (concentration: 0.1mM): 0.986 ± 0.013
- NP40-soluble protein abundance (concentration: 0.5mM): 1.01 ± 0.045

Target: UniProt Q9H0W8 and related entries
- NP40-soluble protein abundance (concentration: 0.1mM): 1.01 ± 0.013
- NP40-soluble protein abundance (concentration: 0.5mM): 1 ± 0.046

Target: UniProt Q9H8M7
- NP40-soluble protein abundance (concentration: 0.1mM): 0.984 ± 0.031
- NP40-soluble protein abundance (concentration: 0.5mM): 1.01 ± 0.051

Target: VPS16 (UniProt Q9H269)
- NP40-soluble protein abundance (concentration: 0.1mM): 1.04 ± 0.022
- NP40-soluble protein abundance (concentration: 0.5mM): 0.989 ± 0.057

Target: MRPL44 (UniProt Q9H9J2)
- NP40-soluble protein abundance (concentration: 0.1mM): 1.02 ± 0.034
- NP40-soluble protein abundance (concentration: 0.5mM): 1.01 ± 0.045

Target: UniProt Q9H3N1
- NP40-soluble protein abundance (concentration: 0.1mM): 0.999 ± 0.012
- NP40-soluble protein abundance (concentration: 0.5mM): 0.988 ± 0.06

Target: UniProt Q9H8P0 and related entries
- NP40-soluble protein abundance (concentration: 0.1mM): 0.973 ± 0.1
- NP40-soluble protein abundance (concentration: 0.5mM): 1.02 ± 0.073

Target: UniProt Q9H9B1 and related entries
- NP40-soluble protein abundance (concentration: 0.1mM): 0.9757 ± 0.0095
- NP40-soluble protein abundance (concentration: 0.5mM): 1 ± 0.022

Target: UniProt Q9HD26 and related entries
- NP40-soluble protein abundance (concentration: 0.1mM): 0.959 ± 0.014
- NP40-soluble protein abundance (concentration: 0.5mM): 0.951 ± 0.024

Target: PCIF1 (UniProt Q9H4Z3)
- NP40-soluble protein abundance (concentration: 0.1mM): 0.956 ± 0.075
- NP40-soluble protein abundance (concentration: 0.5mM): 1.02 ± 0.12

Target: MEGF9 (UniProt Q9H1U4)
- NP40-soluble protein abundance (concentration: 0.1mM): 1 ± 0.036
- NP40-soluble protein abundance (concentration: 0.5mM): 1.06 ± 0.015

Target: UniProt Q9H871
- NP40-soluble protein abundance (concentration: 0.1mM): 1.01 ± 0.029
- NP40-soluble protein abundance (concentration: 0.5mM): 0.979 ± 0.013

Target: L2HGDH (UniProt Q9H9P8)
- NP40-soluble protein abundance (concentration: 0.1mM): 1.008 ± 0.0082
- NP40-soluble protein abundance (concentration: 0.5mM): 1.01 ± 0.012

Target: UniProt Q9H165 and related entries
- NP40-soluble protein abundance (concentration: 0.1mM): 0.9936 ± 0.0057
- NP40-soluble protein abundance (concentration: 0.5mM): 0.998 ± 0.019

Target: UniProt Q9H6R7 and related entries
- NP40-soluble protein abundance (concentration: 0.1mM): 1.01 ± 0.042
- NP40-soluble protein abundance (concentration: 0.5mM): 1 ± 0.034

Target: UniProt Q9H300 and related entries
- NP40-soluble protein abundance (concentration: 0.1mM): 1.01 ± 0.055
- NP40-soluble protein abundance (concentration: 0.5mM): 1.07 ± 0.065

Target: UniProt Q9H074 and related entries
- NP40-soluble protein abundance (concentration: 0.1mM): 1.06 ± 0.079
- NP40-soluble protein abundance (concentration: 0.5mM): 0.961 ± 0.023

Target: ACTR5 (UniProt Q9H9F9)
- NP40-soluble protein abundance (concentration: 0.1mM): 1.01 ± 0.059
- NP40-soluble protein abundance (concentration: 0.5mM): 1.04 ± 0.068

Target: LYRM4 (UniProt Q9HD34)
- NP40-soluble protein abundance (concentration: 0.1mM): 0.984 ± 0.041
- NP40-soluble protein abundance (concentration: 0.5mM): 0.989 ± 0.054

Target: UniProt Q9HCE5
- NP40-soluble protein abundance (concentration: 0.1mM): 0.96 ± 0.035
- NP40-soluble protein abundance (concentration: 0.5mM): 0.999 ± 0.05

Target: TM6SF1 (UniProt Q9BZW5)
- NP40-soluble protein abundance (concentration: 0.1mM): 1.008 ± 0.0042
- NP40-soluble protein abundance (concentration: 0.5mM): 0.964 ± 0.061

Target: REXO4 (UniProt Q9GZR2)
- NP40-soluble protein abundance (concentration: 0.1mM): 1 ± 0.029
- NP40-soluble protein abundance (concentration: 0.5mM): 1.05 ± 0.048

Target: UniProt Q9H1B7
- NP40-soluble protein abundance (concentration: 0.1mM): 1.02 ± 0.011
- NP40-soluble protein abundance (concentration: 0.5mM): 1 ± 0.034

Target: UniProt Q9NPB8 and related entries
- NP40-soluble protein abundance (concentration: 0.1mM): 1.024 ± 0.0037
- NP40-soluble protein abundance (concentration: 0.5mM): 1.02 ± 0.014

Target: UniProt Q9H8G2
- NP40-soluble protein abundance (concentration: 0.1mM): 0.963 ± 0.038
- NP40-soluble protein abundance (concentration: 0.5mM): 1.01 ± 0.03

Target: UniProt Q9C035 and related entries
- NP40-soluble protein abundance (concentration: 0.1mM): 0.99 ± 0.041
- NP40-soluble protein abundance (concentration: 0.5mM): 0.983 ± 0.01

Target: UniProt Q9H857 and related entries
- NP40-soluble protein abundance (concentration: 0.1mM): 1.04 ± 0.051
- NP40-soluble protein abundance (concentration: 0.5mM): 0.997 ± 0.13

Target: UniProt Q9BZJ0-2|Q5JY65 and related entries
- NP40-soluble protein abundance (concentration: 0.1mM): 0.99 ± 0.018
- NP40-soluble protein abundance (concentration: 0.5mM): 1.03 ± 0.051
